Data reported in publication PMC3679036.
Results are given in words; binding and its absence hold for the method and conditions named. Binding seen in cells or lysates may run through a third protein. Some results given as binding are weak or reduced against the parent protein; the word gives no strength.

Protein sequences, listed by entry. Tags and fused reporters are not part of them. Lines headed by an entry give the natural chain unless they say otherwise; changes in a name come on top. Chains listed by the source or under a name are the forms on record and can include a tag or linker.
UniProt P61586: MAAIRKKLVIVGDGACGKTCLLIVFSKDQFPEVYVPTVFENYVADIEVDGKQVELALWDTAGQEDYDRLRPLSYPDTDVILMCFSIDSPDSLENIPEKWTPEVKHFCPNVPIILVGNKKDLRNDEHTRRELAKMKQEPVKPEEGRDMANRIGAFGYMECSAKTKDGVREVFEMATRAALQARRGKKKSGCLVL
HA-tagged constitutively active RhoA (RhoA V14) (P61586, form named): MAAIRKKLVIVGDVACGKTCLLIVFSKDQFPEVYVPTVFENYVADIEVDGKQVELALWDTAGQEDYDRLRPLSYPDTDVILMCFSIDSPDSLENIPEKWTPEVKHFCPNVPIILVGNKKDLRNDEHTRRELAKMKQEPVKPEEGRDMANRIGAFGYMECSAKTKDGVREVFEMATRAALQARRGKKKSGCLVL

Experiments:
[1] = biological target: HA-tagged constitutively active RhoA (RhoA V14) (UniProt P61586); test: co-IP; acini expressing triple-HA-tagged CA or DN RhoA or Rac1 lysed; anti-HA agarose (clone HA-7) 1 h at 4°C; four washes in RIPA buffer; eluted with HA peptide; blot for endogenous RhoGDI1
[2] = biological target: HA-tagged dominant negative RhoA (RhoA N19) (UniProt P61586); test: as above
[3] = biological target: GST-constitutively active RhoA (pGEX-4T3-RhoA-Q63L) (UniProt P61586); test: pull-down; 50 µg purified GST-fusion protein on glutathione-Sepharose beads rotated 1 h at 4°C with precleared total lysate of mouse pancreatic acini (2000-2500 µg; 20 mM HEPES pH 7.5, 100 mM NaCl, 5 mM MgCl2, 1% Triton X-100); eluted with reduced glutathione; blot for RhoGDI1; only the target purified
[4] = biological target: GST-dominant negative RhoA (pGEX-2T-RhoA-T19N) (UniProt P61586); test: as above

B1: RhoGDI1 (endogenous, mouse pancreatic acini) (protein, UniProt Q99PT1 1-204)
chain: MAEQEPTAEQLAQIAAENEEDEHSVNYKPPAQKSIQEIQELDKDDESLRKYKEALLGRVAVSADPNVPNVIVTRLTLVCSTAPGPLELDLTGDLESFKKQSFVLKEGVEYRIKISFRVNREIVSGMKYIQHTYRKGVKIDKTDYMVGSYGPRAEEYEFLTPMEEAPKGMLARGSYNIKSRFTDDDKTDHLSWEWNLTIKKEWKD
binding [1]: no binding | binding [2]: binds | binding [3]: no binding | binding [4]: binds
